Data: patent publication US9205137B2, “Maturation of gastrointestinal tract” (ANARA AB, priority 2010, dated 2015)
At least one structure is not confirmed: it was looked up by name or label, or the drawing left a doubt.

What was measured:
Assay type in all cases: in vivo
Conditions in all cases: drug one hour prior to Creon, in words
[1] = system: 14-d-old rat pups; assay: Morphometry of mature enterocytes along villi, Creon with drug pre-treatment, Example 2
Protocol: (§1) In both of the following experiments 14-d-old pups were weighed and divided into groups and further to subgroups depending on the aim of each experiment. Pups were fed intragastrically via a feeding tube (0.96 mm outer diameter, PE50, Becton Dickinson, Sparks, Md., USA), in a volume 0.01 mL/g b.wt. The dose(s) for each pup was repeated once daily in corresponding manner for three days (14, 15, 16-d-old).
At 17 days of age, all the pups were separated from their dams and then anesthetized by a subcutaneous injection of a mixture of Azaperone® (Stresnil; Janssen Pharmaceutica, Beerse, Belgium), 30 μg/g body weight (b.wt), and Ketamine® (Ketalar; Pfizer, New York, N.Y., USA), 170 μg/g b.wt. Once sure of anesthesia, the abdomen and thorax were then opened, euthanized via heart puncture. The small intestine was, after it was dissected out, length measured and then divided into two equally long proximal and distal parts, both of which were flashed with cold saline followed by a measurement of each one's weight. A 2 cm piece was collected from the midsection of the distal part and fixed in bouin's solution for 24 hr at room temperature for morphological changes measurements, while the rest parts of it were immediately frozen on dry ice and stored for functional analysis. […]

[2] = system: 14-d-old rat pups; assay: Disaccharidase activity in distal intestinal homogenates, Creon with drug pre-treatment, Example 2
Protocol: as §1
At 17 days of age, all the pups were separated from their dams and then anesthetized by a subcutaneous injection of a mixture of Azaperone® (Stresnil; Janssen Pharmaceutica, Beerse, Belgium), 30 μg/g body weight (b.wt), and Ketamine® (Ketalar; Pfizer, New York, N.Y., USA), 170 μg/g b.wt. […] The small intestine was, after it was dissected out, length measured and then divided into two equally long proximal and distal parts, both of which were flashed with cold saline followed by a measurement of each one's weight. […]
The distal part of the small intestine was homogenized in cold 0.9% NaCl (1:10 w/v). Then, the disaccharidase activities were measured by the Dahlqvist A method, by incubating the homogenates with the appropriate disaccharide for 1 h at 37° C., thereafter the liberated glucose was measured by using a glucose oxidase reagent (Sigma chemicals), as described in Dahlqvist, A, in 1984 (Assay of intestinal disaccharidases, Scand J Clin Lab Invest, 1984; 44: 169-172). […]

[3] = system: 14-d-old rat pups; assay: Small intestine length and weight, Creon with anti-inflammatory drug pre-treatment, Example 2
Protocol: as §1
At 17 days of age, all the pups were separated from their dams and then anesthetized by a subcutaneous injection of a mixture of Azaperone® (Stresnil; Janssen Pharmaceutica, Beerse, Belgium), 30 μg/g body weight (b.wt), and Ketamine® (Ketalar; Pfizer, New York, N.Y., USA), 170 μg/g b.wt. Once sure of anesthesia, the abdomen and thorax were then opened, euthanized via heart puncture. The small intestine was, after it was dissected out, length measured and then divided into two equally long proximal and distal parts, both of which were flashed with cold saline followed by a measurement of each one's weight. A 2 cm piece was collected from the midsection of the distal part and fixed in bouin's solution for 24 hr at room temperature for morphological changes measurements, while the rest parts of it were immediately frozen on dry ice and stored for functional analysis.
In order to compensate for individual variations in BW, the organ measurements are presented per g BW. […]

## Cc1ccc(-c2cc(C(F)(F)F)nn2-c2ccc(S(N)(=O)=O)cc2)cc1 [Celexosib, Celecoxib]
[1]
  effect of drug pre-treatment on mature cells (morphometric analysis) under Creon: slightly decrease
[2]
  effect of drug pre-treatment on disaccharidases activities under Creon: slightly inhibited
[3]
  effect of drug pre-treatment on the effect of Creon on intestinal weight and length: could not be cancelled
